Source: PMC4682109, “The experimental power of FR900359 to study Gq-regulated biological processes” (Nature Communications, 2015)
Results are given in words; binding and its absence hold for the method and conditions named. In cells and extracts the contact can be indirect. Some entries that bind do so weakly or less than the wild type. Tags and fused reporters may be left off the sequences shown.

By UniProt entry, the sequences of proteins in these tests, tags left out.
UniProt P32121: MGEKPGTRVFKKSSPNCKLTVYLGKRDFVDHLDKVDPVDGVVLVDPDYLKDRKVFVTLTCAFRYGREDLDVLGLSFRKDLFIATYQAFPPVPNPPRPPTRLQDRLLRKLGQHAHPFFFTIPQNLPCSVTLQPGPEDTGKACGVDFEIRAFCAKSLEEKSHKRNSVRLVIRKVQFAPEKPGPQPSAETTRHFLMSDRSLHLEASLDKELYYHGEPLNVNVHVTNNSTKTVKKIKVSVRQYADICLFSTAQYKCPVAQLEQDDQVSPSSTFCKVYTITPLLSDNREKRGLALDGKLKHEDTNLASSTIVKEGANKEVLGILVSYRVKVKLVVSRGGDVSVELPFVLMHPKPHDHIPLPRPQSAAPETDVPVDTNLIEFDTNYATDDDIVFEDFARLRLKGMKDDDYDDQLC

Biological target: T1, prostaglandin D2 receptor DP2/CRTH2 fused to Renilla luciferase (UniProt Q9Y5Y4)
T1 sequence: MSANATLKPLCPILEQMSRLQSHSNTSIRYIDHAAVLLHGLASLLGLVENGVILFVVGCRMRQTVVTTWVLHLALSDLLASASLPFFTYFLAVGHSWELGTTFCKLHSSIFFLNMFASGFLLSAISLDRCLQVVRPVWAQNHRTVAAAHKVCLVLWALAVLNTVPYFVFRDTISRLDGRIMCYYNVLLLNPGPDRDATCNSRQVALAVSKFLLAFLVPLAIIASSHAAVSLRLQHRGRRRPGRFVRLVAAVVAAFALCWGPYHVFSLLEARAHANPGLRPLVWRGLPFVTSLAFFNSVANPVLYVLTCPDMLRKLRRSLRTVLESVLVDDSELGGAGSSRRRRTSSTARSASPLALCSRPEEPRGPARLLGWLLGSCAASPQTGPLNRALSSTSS
Test: FRET or BRET; BRET^2 in HEK293 cells stably expressing CRTH2-RLuc (donor) and GFP^2-β-arrestin2 (acceptor); agonist PGD2 5 min, HBSS with 20 mM HEPES, DeepBlueC coelenterazine 5 μM; with or without pretreatment with PTX (16-20 h) or FR (30 min)

binding: binds
Substance: GFP^2-β-arrestin2 (from UniProt P32121 1-409)
